Primary screen of a compound library

Data taken from ChEMBL document CHEMBL3988442, “University of Dundee, Small-Polar-MMV Screening Library” (2021).

T. brucei: 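Whole-parasite assay of Trypanosoma brucei over 72 hours; the read-out is not stated. Tested at 30 µM. The record gives no direction; compounds that gave an IC50 in retests scored well above the rest, so higher reads as stronger inhibition. Values scatter widely below zero; nearly all retest evidence comes from the higher of the two concentrations used. Size under these conditions: about 64,000 compounds, about 940 of them at 50% or above in at least one test.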
Toxoplasma: 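Assay of Toxoplasma gondii numbers, read through their beta-galactosidase reporter with a colour substrate. Concentration: 10 µM. The record gives no direction; the compounds picked for IC50 retests had high values, so higher reads as fewer parasites. About 67,000 compounds were tested under these conditions; 0.38% (about 260) showed 50% or more at least once.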
Leishmania in macrophages: 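Cell assay of Leishmania donovani living inside macrophages; the read-out is not stated. Tested at 30 µM. The record gives no direction; compounds that gave an IC50 in retests scored well above the rest, so higher reads as stronger inhibition. Of about 69,000 compounds tested this way, about 1,000 (1.5%) reached 50% or more in at least one test.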

The filed quantity is “Percent Effect” (%).
The controls that fix the scale are not given in the record; negative values are as filed.
Compounds were drawn at random from those tested, without regard to their results.
Two or more numbers in one place are separate tests of the same structure; such repeats can differ widely.
A dash means the value is not listed here; it may have been measured.

| Compound | T. brucei | Toxoplasma | Leishmania in macrophages |
|---|---|---|---|
| `Cc1ccc(NC(=O)CNC(C)Cc2ccsc2)cc1F` (stereo not given) | -41.16% | 21.51% | 13.5% |
| `O=C(O)C(F)(F)F.[H][C@@]12CCN(S(=O)(=O)c3ccc(F)cc3)C[C@]1([H])[C@@H](CN(C)C)OC2` | -20.07% | -11.12% | 15.35% |
| `CCn1ncc(S(=O)(=O)N[C@@H]2CC[C@@H](n3ccnc3)[C@@H]2O)c1C` | 6.208% | 6.794% | 16.58% |
| `CCOCC(=O)N1CCC(Cc2nnc(SC)n2C)CC1` | - | -9.527% | 19.37% |
| `Cc1cc(NC(=O)Cn2cnc(-c3cccs3)cc2=O)no1` | 13.21% | -61.39% | 5.445% and 41.25% |
| `COC1CCN(C(=O)Cn2ccc3ccccc32)CC1` | -2.576% | -2.574% | 2.885% and 4.931% |
| `CC(O)CN1CCC(=O)N(Cc2ccccc2)Cc2ccccc21` (stereo not given) | -48.22% | -9.048% | -6.352% |
| `[H][C@]12CCN(C(=O)CCC(C)C)CC[C@@]1([H])S(=O)(=O)CCN2S(C)(=O)=O` | -23.37% | -22.86% | 8.126% |
| `CC(=O)N1CCC(N[C@@H]2CO[C@H](CNC(=O)C3CCCC3)[C@H]2O)CC1` | -2.284% | 15.97% | 10.76% |
| `CC(C)c1nc(CN2CCOC(Cn3cncn3)C2)cs1` (stereo not given) | -8.998% | -24.79% | 27.81% |
| `CN(C)C(=O)C1CCCN1c1ncnc2ccsc12` (stereo not given) | -12.52% | 5.369% | 21.53% |
| `CCOc1cccc2c1OCC(=O)N(c1ccc3c(c1)OCO3)C2` | -54.3% | 16.07% | -20.38% |
| `CCn1nc2c(cc1=O)CN(Cc1ccc(-n3cccn3)cc1)CC2` | -16.34% | -1.937% | -9.756% |
| `Cn1ccc(C(=O)NC2CCC23CCN(CC2CCOCC2)CC3)c1.O=C(O)C(F)(F)F` (stereo not given) | -17.43% | -19.36% | -19.94% |
| `Cc1sc(CN)nc1-c1ccc(Cl)cc1.Cl` | -33.68% | -3.617% | -23.95% |
| `CCn1cc(-c2cc(C(F)F)n3nc(CC(=O)O)nc3n2)cn1` | 20.94% | 7.776% | 10.34% |
| `C[C@@H]1CN(Cc2cccnc2)C[C@]1(C)O` | -23.51% | - | 30.47% |
| `Cc1nc2c(c(NCCc3nccs3)n1)CCN(CC1CC1)CC2` | -17.75% | -8.529% | -54.25% |
| `Cc1ccc([C@H]2CN(CCO)C[C@@H]2NC(=O)CN2CCCCC2=O)o1` | -17.23% | - | 22.22% |
| `Cc1[nH]c2c(C)ccc(C)c2c1CC(=O)NCCNc1cccnc1` | -16.39% | -1.484% | -16.14% |
| `Cc1cccc(C2(NC(=O)CCN3C(=O)CCC3=O)CCCC2)c1` | -1.926% | - | -13.21% |
| `Cc1cccc(N2Cc3nc(N4CCC(C)CC4)ncc3C2=O)c1` | - | 14.75% | 36.84% |
| `O=C(O)C(F)(F)F.[H][C@]12CCC[C@@]1(COc1ccccn1)CN(S(=O)(=O)C1CC1)C2` | -8.351% | -6.216% | 4.948% |
| `O=C(O)C(F)(F)F.O=C(c1cscn1)N1CCC2(CN(Cc3nccs3)C2)C1` | -15.71% | 13.26% | 25.05% |
| `CN(Cc1ccccc1)C(=O)CS(=O)(=O)Cc1ccc(Cl)c(Cl)c1` | 26.27% | 6.022% | 9.562% |
| `N#Cc1ccc(C(=O)N2CCC(c3ncc[nH]3)CC2)cn1` | -21.66% | -10.43% | 15.28% |
| `Cc1nccc(N[C@H]2CN(C(=O)CN3CCCC3=O)C[C@@H]2C(C)C)n1` | -19.05% | 10.58% | -13.59% |
| `CN1CCN(C(=O)c2nc3c(o2)CN(C(=O)c2cccnc2)C3)CC1.O=C(O)C(F)(F)F.O=C(O)C(F)(F)F` | -15.78% | 21.35% | 7.064% |
| `O=C(COc1ccccc1Cl)N1CCCC(n2ccnc2)C1` (stereo not given) | - | 18.86% | 30.5% |
| `O=C(O)C(F)(F)F.c1cnc(N2CCC3(CCN(CC4CCOC4)CC3)C2)nc1` (stereo not given) | -13.94% | 3.163% | 41.73% |
| `COc1ccc(CN2CCCC(Nc3cccc(F)c3)C2)cc1O` (stereo not given) | 35.2% | -2.073% | 7.601% |
| `Cc1cs/c(=N/C(=O)c2csc(NCC(C)C)n2)[nH]1` | 86.34% | 19.16% | 8.971% |
| `O=C(c1cccnc1N1CCCCC1)N1CCCC(n2ccnc2)C1` (stereo not given) | - | -37.14% | 21.94% |
| `Cc1ccc(Cl)cc1N1CCC(CNC(=O)CCn2ccnc2)C1` (stereo not given) | 0.7065% | -5.639% | 33.88% |
| `N#Cc1ccc(S(=O)(=O)Nc2cnn(C3CCOCC3)c2)cc1` | -11.5% | 1.597% | -17.37% |
| `Cc1cc(N2CCN(c3ccc(=O)[nH]n3)CC2)nc(-c2ccncc2)n1` | 8.58% | -0.8203% | 5.12% |
| `c1ccc(-n2cc(CNCC3CCCN3c3cccnn3)nn2)cc1` (stereo not given) | -15.75% | 3.288% | -2.622% |
| `O=C(NCc1nc(C2CC2)no1)N1CCOC(c2ccccc2)C1` (stereo not given) | -62.42% | 5.83% | 10.16% |
| `CCn1ccnc1CN1CCN(c2ncnc3ccsc23)CC1` | -9.25% | -3.58% | 27.85% |
| `CN(C)Cc1cnc(CC2CCN(CCc3ccccc3)CC2)cn1` | -6.58% | 20.4% | -33.07% |
| `COCCC(=O)N1CCCC(CCC(=O)Nc2ccc(Cl)cc2)C1` (stereo not given) | -74.47% | -5.117% | -7.165% |
| `CCOc1ccc(NC(=O)c2cnc(N3CCCC3)nc2C)cc1` | 19.25% | -7.761% | 16.9% |
| `Cc1nc(-c2ccc(S(=O)(=O)N3CCOCC3)cc2)co1` | -0.3909% | 5.795% | 23.37% |

Once more, the final 5:

- CCn1ccnc1CN1CCN(c2ncnc3ccsc23)CC1 : T. brucei: -9.25%; Toxoplasma: -3.58%; Leishmania in macrophages: 27.85%
- CN(C)Cc1cnc(CC2CCN(CCc3ccccc3)CC2)cn1 : T. brucei: -6.58%; Toxoplasma: 20.4%; Leishmania in macrophages: -33.07%
- COCCC(=O)N1CCCC(CCC(=O)Nc2ccc(Cl)cc2)C1 (stereo not given) : T. brucei: -74.47%; Toxoplasma: -5.117%; Leishmania in macrophages: -7.165%
- CCOc1ccc(NC(=O)c2cnc(N3CCCC3)nc2C)cc1 : T. brucei: 19.25%; Toxoplasma: -7.761%; Leishmania in macrophages: 16.9%
- Cc1nc(-c2ccc(S(=O)(=O)N3CCOCC3)cc2)co1 : T. brucei: -0.3909%; Toxoplasma: 5.795%; Leishmania in macrophages: 23.37%